# According to the supplement of paper PMC12819154, “High-throughput peptide-centric local stability assay extends protein–ligand identification to membrane proteins, tissues and bacteria” (Nature Structural & Molecular Biology, 2025):
# Chains of the proteins cited; added tags and fusions are not shown. Lines headed by an entry give the natural chain unless they say otherwise; changes in a name come on top.
# UniProt Q8R550, whole entry: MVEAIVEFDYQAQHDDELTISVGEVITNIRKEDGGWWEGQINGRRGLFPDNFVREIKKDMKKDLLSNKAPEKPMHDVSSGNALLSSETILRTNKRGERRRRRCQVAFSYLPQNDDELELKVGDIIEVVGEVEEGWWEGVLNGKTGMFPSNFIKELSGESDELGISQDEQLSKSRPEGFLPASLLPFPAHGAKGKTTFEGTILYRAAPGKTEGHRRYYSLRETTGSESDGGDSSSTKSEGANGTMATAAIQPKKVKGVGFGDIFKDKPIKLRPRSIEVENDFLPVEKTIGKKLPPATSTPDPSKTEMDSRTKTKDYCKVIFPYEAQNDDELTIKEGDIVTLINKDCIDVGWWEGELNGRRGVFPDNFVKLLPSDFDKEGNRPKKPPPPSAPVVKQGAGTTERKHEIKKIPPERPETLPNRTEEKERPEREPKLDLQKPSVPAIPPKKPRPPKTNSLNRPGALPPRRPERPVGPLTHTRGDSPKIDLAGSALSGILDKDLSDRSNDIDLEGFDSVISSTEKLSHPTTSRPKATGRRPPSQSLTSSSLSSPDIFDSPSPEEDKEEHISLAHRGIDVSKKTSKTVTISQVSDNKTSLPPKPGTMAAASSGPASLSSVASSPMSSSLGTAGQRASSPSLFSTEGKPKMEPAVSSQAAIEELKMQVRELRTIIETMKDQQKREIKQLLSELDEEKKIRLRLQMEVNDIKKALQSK
# UniProt Q8R3F9: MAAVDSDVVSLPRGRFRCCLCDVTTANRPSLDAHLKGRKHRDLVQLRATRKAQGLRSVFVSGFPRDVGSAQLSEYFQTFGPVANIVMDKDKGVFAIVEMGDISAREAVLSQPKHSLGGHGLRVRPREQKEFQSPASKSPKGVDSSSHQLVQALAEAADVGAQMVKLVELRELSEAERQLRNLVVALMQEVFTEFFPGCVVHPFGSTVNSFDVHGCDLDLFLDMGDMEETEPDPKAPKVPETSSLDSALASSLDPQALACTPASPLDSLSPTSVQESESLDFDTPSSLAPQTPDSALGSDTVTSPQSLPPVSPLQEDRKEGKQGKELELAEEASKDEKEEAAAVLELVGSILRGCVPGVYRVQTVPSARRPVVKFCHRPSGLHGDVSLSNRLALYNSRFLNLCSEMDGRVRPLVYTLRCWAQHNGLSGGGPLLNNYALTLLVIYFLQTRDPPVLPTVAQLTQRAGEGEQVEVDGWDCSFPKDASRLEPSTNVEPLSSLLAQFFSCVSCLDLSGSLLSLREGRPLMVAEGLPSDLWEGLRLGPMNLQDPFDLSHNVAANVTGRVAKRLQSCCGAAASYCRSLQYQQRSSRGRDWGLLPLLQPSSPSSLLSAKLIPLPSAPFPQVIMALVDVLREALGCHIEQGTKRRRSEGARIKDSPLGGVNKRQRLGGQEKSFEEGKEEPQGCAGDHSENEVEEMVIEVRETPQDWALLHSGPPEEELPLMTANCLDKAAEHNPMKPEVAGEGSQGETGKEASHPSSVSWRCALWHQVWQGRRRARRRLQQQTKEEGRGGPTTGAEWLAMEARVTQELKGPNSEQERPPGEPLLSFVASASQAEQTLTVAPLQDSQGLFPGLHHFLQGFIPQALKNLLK
# UniProt Q8R2X8: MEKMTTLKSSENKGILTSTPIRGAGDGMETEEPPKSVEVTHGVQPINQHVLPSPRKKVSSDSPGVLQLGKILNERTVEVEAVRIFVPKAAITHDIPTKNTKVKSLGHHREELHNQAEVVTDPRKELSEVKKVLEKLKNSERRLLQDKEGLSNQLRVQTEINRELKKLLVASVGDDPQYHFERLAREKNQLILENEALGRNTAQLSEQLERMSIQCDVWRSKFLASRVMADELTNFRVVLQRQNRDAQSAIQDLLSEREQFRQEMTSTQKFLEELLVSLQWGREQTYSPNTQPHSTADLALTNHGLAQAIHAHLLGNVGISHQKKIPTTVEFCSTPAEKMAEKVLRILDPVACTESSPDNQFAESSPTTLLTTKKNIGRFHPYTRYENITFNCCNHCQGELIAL
# UniProt Q8VE65: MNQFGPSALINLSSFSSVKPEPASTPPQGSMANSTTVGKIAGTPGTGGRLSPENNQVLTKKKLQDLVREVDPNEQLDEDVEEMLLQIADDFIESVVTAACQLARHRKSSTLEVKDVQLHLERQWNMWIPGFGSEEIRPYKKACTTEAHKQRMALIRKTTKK
# UniProt Q8VEK6, whole entry: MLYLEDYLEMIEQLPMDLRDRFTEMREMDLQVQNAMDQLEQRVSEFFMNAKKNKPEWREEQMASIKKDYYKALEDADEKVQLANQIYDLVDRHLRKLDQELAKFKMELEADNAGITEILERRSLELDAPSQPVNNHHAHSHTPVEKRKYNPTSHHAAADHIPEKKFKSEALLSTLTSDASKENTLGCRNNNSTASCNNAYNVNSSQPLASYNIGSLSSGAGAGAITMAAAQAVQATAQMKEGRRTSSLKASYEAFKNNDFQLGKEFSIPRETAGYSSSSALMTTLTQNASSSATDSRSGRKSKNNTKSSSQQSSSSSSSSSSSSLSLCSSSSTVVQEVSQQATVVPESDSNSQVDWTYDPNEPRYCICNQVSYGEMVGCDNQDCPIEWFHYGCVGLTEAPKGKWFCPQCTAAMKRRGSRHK
# UniProt Q8R516: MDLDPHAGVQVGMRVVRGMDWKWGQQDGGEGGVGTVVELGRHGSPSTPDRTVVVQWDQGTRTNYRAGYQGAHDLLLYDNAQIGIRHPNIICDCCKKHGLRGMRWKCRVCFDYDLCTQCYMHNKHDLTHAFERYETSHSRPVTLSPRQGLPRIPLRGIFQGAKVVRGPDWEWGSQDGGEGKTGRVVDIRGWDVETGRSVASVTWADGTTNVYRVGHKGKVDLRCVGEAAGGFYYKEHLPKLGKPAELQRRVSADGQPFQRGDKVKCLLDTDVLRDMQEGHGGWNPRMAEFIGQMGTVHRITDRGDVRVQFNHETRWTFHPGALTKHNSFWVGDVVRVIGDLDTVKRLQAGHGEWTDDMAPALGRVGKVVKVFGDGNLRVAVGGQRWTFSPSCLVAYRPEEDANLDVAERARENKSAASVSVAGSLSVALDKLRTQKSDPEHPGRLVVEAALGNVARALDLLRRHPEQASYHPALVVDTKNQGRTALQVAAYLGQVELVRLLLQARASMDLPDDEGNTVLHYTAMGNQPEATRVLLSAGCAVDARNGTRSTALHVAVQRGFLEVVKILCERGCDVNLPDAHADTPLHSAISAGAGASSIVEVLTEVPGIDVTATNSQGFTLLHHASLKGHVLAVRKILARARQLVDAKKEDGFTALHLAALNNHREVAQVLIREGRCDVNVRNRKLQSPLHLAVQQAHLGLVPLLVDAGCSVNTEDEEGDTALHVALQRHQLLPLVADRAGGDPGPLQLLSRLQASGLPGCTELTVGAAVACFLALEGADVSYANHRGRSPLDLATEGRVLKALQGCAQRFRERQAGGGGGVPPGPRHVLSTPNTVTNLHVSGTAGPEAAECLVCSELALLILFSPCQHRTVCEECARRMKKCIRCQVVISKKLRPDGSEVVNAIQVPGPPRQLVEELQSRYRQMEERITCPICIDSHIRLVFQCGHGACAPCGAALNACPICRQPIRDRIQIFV
# UniProt Q8VC97: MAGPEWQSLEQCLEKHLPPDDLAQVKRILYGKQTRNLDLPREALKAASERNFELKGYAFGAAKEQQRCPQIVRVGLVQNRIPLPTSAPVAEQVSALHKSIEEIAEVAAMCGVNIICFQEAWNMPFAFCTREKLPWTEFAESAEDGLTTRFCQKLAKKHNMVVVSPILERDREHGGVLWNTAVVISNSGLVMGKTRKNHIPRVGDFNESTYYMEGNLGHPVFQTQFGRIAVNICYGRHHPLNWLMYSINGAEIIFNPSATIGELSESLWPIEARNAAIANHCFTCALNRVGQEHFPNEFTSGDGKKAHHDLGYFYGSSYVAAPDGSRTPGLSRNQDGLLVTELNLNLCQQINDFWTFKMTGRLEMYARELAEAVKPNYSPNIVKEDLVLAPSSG
# UniProt Q8VEA4: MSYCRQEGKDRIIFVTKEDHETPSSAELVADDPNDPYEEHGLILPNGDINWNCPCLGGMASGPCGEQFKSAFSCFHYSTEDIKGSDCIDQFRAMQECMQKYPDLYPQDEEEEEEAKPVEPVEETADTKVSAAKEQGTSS
# UniProt Q8R4V5: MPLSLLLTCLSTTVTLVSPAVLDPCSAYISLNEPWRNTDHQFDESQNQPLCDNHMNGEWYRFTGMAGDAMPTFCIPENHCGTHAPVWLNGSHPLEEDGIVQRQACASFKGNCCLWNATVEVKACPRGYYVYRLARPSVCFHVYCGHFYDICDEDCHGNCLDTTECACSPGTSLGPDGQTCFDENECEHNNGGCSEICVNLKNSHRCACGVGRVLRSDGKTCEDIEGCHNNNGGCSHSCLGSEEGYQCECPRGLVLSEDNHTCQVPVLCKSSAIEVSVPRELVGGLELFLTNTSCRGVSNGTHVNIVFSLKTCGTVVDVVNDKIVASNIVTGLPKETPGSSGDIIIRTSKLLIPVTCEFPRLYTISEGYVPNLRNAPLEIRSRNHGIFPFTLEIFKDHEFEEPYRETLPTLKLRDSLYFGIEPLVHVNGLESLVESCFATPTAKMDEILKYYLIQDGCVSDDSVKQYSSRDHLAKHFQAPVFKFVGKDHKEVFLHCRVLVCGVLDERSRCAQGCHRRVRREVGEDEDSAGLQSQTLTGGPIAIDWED
# UniProt Q8VE80: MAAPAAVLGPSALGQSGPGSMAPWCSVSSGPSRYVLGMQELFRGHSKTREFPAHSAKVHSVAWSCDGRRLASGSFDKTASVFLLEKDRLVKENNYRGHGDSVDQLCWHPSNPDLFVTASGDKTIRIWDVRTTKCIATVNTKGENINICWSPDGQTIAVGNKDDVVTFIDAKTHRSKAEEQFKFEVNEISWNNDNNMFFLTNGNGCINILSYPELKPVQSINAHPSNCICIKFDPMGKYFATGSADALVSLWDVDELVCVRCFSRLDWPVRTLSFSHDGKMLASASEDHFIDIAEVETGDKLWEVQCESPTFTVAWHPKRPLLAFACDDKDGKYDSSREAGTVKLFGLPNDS
# UniProt Q8R5L3: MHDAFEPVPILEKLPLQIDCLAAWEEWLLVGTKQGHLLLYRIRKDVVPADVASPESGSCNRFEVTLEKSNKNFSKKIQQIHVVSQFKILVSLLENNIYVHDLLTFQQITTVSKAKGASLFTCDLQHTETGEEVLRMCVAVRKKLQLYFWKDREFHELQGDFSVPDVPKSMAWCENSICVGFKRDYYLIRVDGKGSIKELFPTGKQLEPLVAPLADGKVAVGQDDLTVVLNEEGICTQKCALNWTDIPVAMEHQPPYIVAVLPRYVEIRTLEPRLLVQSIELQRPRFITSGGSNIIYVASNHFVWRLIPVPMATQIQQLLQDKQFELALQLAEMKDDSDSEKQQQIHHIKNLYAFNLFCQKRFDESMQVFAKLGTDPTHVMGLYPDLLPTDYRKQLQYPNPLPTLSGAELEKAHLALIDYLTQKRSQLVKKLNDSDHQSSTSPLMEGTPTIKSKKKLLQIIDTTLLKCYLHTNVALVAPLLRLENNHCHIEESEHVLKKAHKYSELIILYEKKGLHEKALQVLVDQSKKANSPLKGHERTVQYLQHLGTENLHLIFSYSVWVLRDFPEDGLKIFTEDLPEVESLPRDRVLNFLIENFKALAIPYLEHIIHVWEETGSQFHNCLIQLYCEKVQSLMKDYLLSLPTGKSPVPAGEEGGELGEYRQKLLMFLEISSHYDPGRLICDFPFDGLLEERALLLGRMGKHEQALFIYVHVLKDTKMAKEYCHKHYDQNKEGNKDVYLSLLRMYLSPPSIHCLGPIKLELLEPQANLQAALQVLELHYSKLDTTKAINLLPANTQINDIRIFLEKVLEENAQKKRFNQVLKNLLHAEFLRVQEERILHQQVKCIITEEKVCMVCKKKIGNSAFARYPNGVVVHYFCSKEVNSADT
# UniProt Q8VE92: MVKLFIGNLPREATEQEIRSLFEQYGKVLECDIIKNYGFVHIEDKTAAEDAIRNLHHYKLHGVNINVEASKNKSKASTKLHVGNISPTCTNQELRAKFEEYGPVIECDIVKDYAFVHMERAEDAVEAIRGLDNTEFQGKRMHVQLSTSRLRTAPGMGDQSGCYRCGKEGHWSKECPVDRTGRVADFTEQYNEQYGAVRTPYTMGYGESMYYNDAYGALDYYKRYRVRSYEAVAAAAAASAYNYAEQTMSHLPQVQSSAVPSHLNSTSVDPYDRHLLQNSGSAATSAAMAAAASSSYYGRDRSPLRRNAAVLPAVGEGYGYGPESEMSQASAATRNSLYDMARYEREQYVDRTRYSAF
# UniProt Q8R3F5: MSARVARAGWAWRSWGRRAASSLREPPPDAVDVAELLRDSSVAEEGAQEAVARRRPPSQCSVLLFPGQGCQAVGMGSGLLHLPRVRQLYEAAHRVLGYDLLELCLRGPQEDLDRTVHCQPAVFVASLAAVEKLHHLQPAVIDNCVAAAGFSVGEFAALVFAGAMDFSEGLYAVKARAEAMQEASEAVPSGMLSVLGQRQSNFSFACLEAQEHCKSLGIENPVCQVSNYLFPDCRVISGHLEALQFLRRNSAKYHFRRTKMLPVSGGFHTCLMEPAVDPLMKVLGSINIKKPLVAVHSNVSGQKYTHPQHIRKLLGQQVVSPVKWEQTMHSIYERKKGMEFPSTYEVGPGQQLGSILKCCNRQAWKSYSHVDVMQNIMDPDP
# The other results are listed elsewhere or left out. Most entries show no effect beyond the scatter of the controls.
# Compound: CN[C@@H]1C[C@H]2O[C@@](C)([C@@H]1OC)n1c3ccccc3c3c4c(c5c6ccccc6n2c5c31)C(=O)NC4 [staurosporine]
# Assay: log2 fold change of tryptic peptide abundance, ligand vs vehicle (limited proteolysis) (log2 ratio); higher = more trypsin-susceptible (destabilized)
# Conditions: ligand concentration: 20 uM; sample: mouse liver crude lysate; replicate design: treated separately
row,Target,log2 fold change
1,"UniProt Q8R550 (peptide sequence: APEKPMHDVSSGNALLSSETILR, peptide start residue: 69)",-0.413
2,"UniProt Q8R464 (peptide sequence: EAFLNGGDGHK, peptide start residue: 371)",-0.144
3,"UniProt Q8VD12 (peptide sequence: FNSQSQAEAHYK, peptide start residue: 83)",0.496
4,"UniProt Q8R3F9 (peptide sequence: VRPLVYTLR, peptide start residue: 409)",0.61
5,"UniProt Q8R5F3 (peptide sequence: GDLFACPK, peptide start residue: 19)",-0.404
6,"UniProt Q8R2X8 (peptide sequence: NTAQLSEQLER, peptide start residue: 200)",0.421
7,"UniProt Q8VEE4 (peptide sequence: FIVNTLKDGR, peptide start residue: 82)",0.493
8,"UniProt Q8VE37 (peptide sequence: VPELFANR, peptide start residue: 207)",-0.232
9,"UniProt Q8VE65 (peptide sequence: IAGTPGTGGR, peptide start residue: 40)",0.101
10,"UniProt Q8R323 (peptide sequence: IEHQTITTPSKK, peptide start residue: 69)",-0.104
11,"UniProt Q8VEK6 (peptide sequence: KYNPTSHHAAADHIPEKK, peptide start residue: 148)",0.319
12,"UniProt Q8VD76 (peptide sequence: ISLPPVLK, peptide start residue: 292)",-0.19
13,"UniProt Q8R516 (peptide sequence: STALHVAVQR, peptide start residue: 548)",-0.443
14,"UniProt Q8VC97 (peptide sequence: KHNMVVVSPILER, peptide start residue: 157)",-0.417
15,"UniProt Q8VEA4 (peptide sequence: SYCRQEGKDR, peptide start residue: 2)",-0.496
16,"UniProt Q8R2U0 (peptide sequence: DLIHDVSFDFHGR, peptide start residue: 13)",-0.312
17,"UniProt Q8VDW0 (peptide sequence: LTLHGLQQYYVK, peptide start residue: 256)",-0.444
18,"UniProt Q8R4P9 (peptide sequence: QLLCLAR, peptide start residue: 1403)",-0.0309

row,Target,log2 fold change
1,"UniProt Q8VC49 (peptide sequence: EPQEPQELQK, peptide start residue: 238)",0.0785
2,"UniProt Q8R4V5 (peptide sequence: LLIPVTCEFPR, peptide start residue: 350)",-0.168
3,"UniProt Q8VBW6 (peptide sequence: YLAQWYNETNGRIPK, peptide start residue: 221)",0.371
4,"UniProt Q8VCF0 (peptide sequence: RPGWVEVFIR, peptide start residue: 65)",0.456
5,"UniProt Q8VC34 (peptide sequence: ESTQISSPGPLCDRFNTSAISEHK, peptide start residue: 295)",-0.31
6,"UniProt Q8VCV1 (peptide sequence: KTYCFDAFPSIDKISK, peptide start residue: 239)",-0.228
7,"UniProt Q8VCD7 (peptide sequence: EGADCIPLSHGHQAGK, peptide start residue: 481)",-0.34
8,"UniProt Q8VE80 (peptide sequence: TLSFSHDGK, peptide start residue: 271)",-0.193
9,"UniProt Q8R5L3 (peptide sequence: NLLHAEFLR, peptide start residue: 823)",0.163
10,"UniProt Q8VEM8 (peptide sequence: GSTASQVLQR, peptide start residue: 291)",0.183
11,"UniProt Q8VE92 (peptide sequence: YEREQYVDR, peptide start residue: 343)",0.243
12,"UniProt Q8VCD5 (peptide sequence: ISIESACEK, peptide start residue: 9)",-0.119
13,"UniProt Q8R3F5 (peptide sequence: YTHPQHIR, peptide start residue: 304)",0.228
14,"UniProt Q8R2U6 (peptide sequence: MKFKPNQTR, peptide start residue: 1)",0.452
15,"UniProt Q8R2U4 (peptide sequence: LLLPLFR, peptide start residue: 79)",-0.45
16,"UniProt Q8R3B7 (peptide sequence: KLEEEEAEVK, peptide start residue: 150)",0.787
17,"UniProt Q8R5G7 (peptide sequence: FGTMPLLPIR, peptide start residue: 1342)",-0.407
18,"UniProt Q8VDJ3 (peptide sequence: KGAVITQIR, peptide start residue: 1071)",0.116

# Pulled one by one from the list above, two records:
row,Target,log2 fold change
18,"UniProt Q8VDJ3 (peptide sequence: KGAVITQIR, peptide start residue: 1071)",0.116
3,"UniProt Q8VBW6 (peptide sequence: YLAQWYNETNGRIPK, peptide start residue: 221)",0.371
